PubChem BioAssay AID1671195 – Yale University – 2021

- Test: 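Genes whose knockdown alters LDL uptake in liver cancer cells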 (primary screen)
- Cells: human Huh7 hepatoma cells
- Reagents: siRNA pool against human genes, 18 nM
- Timing: about 2 to 2.5 days of knockdown, then 8 h LDL uptake
- Treatment: DiI-labelled LDL at 30 µg/ml for 8 h, in lipoprotein-deficient serum medium
- Read-out: 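Fluorescent LDL signal imaged in cells, scaled to the plate median, robust z-score for each replicate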
- Reading the numbers: robust z-score: higher = more LDL uptake after knockdown
- Call rule: 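a gene counts as active if at least two replicate z-scores exceed ±2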
Here is one part, drawn at random, of about 22,000 reagents tested. About 1,510 of all reagents (6.9%) were called active. 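Active includes knockdowns raising or lowering LDL uptake; positive z-scores mean more uptake, negative mean less.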 No sequences are given here.

Target gene	robust z-score, replicate 1	robust z-score, replicate 2	robust z-score, replicate 3	activity call
ABHD13	1.03	-0.0756	-0.00731	inactive
GINS1	0.933	2.71	1.37	inactive
GDAP1	0.28	-0.673	0.508	inactive
COMMD7	4.11	5.03	4.76	active
DHRS11	-0.606	-0.538	-0.276	inactive
BKGD	-0.25	-2.57	-0.319	inactive
CNTNAP3	-0.69	-0.654	-0.968	inactive
LOC391035 (retired record)	-0.676	-0.389	-0.412	inactive
FAM181B	-0.797	-0.719	-0.816	inactive
LOC402059 (retired record)	-0.406	0.851	0.769	inactive
PINX1	0.46	0.0616	1.98	inactive
EFHD1	0.87	0.419	0.0477	inactive
MGST3	-0.519	-0.603	-0.82	inactive
KCNJ10	-0.522	-0.942	-0.195	inactive
LGALS8	-0.543	0.38	0.226	inactive
APOM	1.39	-0.395	-0.639	inactive
KIFC1	0.719	-0.107	0.358	inactive
PRMT2	-1.7	-1.4	-0.919	inactive
FFAR1	-0.683	-0.682	-1.15	inactive
WDR5B	-0.857	-1.77	5.44	inactive
CTNNA3	-0.415	0.373	0.704	inactive
CIMIP5	0.795	0.768	0.274	inactive
LOC388635 (retired record)	0.171	0.0955	0.718	inactive
ACOX3	-0.778	0.152	0.65	inactive
PEBP1	0.439	-0.0623	1.01	inactive
LOC439981 (retired record)	0.661	1.03	0.95	inactive
LINC00964	0.595	0.585	0.23	inactive
PRR12	-0.61	-1.63	-2.14	inactive

Not a retest: an excerpt of the list.
Target gene	robust z-score, replicate 1	robust z-score, replicate 2	robust z-score, replicate 3	activity call
FAM181B	-0.797	-0.719	-0.816	inactive
LOC402059 (retired record)	-0.406	0.851	0.769	inactive
